Our source for the binding values is paper PMC5117210.

Amino acid sequences for entries named in this document (tags omitted). A change or cut given only in a name is not applied to a line headed by its entry. Chains listed by the source or under a name are the forms on record and can include a tag or linker. Residues count along the entry.
UniProt O43157: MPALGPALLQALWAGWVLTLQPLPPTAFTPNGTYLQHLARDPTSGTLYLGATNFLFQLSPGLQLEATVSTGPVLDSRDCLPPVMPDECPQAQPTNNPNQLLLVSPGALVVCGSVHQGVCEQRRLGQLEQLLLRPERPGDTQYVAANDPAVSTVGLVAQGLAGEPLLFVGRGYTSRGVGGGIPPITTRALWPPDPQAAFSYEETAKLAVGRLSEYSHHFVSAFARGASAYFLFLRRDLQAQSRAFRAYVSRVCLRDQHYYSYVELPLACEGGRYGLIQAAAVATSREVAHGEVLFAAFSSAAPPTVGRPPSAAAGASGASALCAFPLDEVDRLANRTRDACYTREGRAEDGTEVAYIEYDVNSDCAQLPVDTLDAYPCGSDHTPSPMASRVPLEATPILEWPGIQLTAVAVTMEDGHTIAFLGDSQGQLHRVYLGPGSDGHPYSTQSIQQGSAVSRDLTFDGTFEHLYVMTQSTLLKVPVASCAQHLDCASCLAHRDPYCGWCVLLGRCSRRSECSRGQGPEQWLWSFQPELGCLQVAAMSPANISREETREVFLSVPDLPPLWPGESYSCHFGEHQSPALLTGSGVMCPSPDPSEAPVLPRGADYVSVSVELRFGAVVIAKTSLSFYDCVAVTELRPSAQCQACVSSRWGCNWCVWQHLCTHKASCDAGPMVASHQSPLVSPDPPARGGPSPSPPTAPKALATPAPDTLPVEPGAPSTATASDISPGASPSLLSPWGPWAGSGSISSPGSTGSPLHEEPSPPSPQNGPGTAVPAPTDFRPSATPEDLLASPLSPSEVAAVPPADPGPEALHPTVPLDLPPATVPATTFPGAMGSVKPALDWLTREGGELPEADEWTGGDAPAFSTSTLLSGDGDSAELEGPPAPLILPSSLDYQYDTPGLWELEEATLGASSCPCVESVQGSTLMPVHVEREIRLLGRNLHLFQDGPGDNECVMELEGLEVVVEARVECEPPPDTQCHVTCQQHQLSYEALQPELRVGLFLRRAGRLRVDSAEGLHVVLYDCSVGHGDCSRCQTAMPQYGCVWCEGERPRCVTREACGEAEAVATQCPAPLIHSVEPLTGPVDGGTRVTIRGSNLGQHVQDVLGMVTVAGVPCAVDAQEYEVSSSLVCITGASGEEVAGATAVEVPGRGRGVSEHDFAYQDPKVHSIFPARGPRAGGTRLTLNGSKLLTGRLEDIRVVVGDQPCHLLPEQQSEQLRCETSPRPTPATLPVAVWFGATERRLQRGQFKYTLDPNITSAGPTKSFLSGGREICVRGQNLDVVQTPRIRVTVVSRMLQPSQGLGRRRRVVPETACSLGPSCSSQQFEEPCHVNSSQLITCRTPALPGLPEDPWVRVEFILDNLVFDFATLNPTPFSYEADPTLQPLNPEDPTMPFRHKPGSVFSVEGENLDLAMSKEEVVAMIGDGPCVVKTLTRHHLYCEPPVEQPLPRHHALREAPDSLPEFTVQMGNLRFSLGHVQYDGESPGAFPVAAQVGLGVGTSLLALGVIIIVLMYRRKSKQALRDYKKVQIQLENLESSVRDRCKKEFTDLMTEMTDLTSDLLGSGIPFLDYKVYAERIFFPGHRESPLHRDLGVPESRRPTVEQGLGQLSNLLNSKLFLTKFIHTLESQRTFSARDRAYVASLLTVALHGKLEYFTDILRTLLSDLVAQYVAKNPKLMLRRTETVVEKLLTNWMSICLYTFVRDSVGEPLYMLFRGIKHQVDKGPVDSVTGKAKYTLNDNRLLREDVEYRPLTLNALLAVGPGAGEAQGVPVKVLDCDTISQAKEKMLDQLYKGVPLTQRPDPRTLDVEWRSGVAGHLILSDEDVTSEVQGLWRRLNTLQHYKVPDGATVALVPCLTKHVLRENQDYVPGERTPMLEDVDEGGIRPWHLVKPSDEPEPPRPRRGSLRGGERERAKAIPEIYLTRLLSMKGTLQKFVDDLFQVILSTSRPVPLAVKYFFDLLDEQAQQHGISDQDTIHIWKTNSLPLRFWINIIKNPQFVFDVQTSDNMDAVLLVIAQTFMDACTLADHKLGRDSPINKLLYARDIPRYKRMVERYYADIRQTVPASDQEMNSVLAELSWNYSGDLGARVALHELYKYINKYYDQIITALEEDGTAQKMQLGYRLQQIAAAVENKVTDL
HA-tagged plexin-B1 cytoplasmic domain (plexin-B1-cyto): residues 1512-2135 of O43157
UniProt Q9ULL4: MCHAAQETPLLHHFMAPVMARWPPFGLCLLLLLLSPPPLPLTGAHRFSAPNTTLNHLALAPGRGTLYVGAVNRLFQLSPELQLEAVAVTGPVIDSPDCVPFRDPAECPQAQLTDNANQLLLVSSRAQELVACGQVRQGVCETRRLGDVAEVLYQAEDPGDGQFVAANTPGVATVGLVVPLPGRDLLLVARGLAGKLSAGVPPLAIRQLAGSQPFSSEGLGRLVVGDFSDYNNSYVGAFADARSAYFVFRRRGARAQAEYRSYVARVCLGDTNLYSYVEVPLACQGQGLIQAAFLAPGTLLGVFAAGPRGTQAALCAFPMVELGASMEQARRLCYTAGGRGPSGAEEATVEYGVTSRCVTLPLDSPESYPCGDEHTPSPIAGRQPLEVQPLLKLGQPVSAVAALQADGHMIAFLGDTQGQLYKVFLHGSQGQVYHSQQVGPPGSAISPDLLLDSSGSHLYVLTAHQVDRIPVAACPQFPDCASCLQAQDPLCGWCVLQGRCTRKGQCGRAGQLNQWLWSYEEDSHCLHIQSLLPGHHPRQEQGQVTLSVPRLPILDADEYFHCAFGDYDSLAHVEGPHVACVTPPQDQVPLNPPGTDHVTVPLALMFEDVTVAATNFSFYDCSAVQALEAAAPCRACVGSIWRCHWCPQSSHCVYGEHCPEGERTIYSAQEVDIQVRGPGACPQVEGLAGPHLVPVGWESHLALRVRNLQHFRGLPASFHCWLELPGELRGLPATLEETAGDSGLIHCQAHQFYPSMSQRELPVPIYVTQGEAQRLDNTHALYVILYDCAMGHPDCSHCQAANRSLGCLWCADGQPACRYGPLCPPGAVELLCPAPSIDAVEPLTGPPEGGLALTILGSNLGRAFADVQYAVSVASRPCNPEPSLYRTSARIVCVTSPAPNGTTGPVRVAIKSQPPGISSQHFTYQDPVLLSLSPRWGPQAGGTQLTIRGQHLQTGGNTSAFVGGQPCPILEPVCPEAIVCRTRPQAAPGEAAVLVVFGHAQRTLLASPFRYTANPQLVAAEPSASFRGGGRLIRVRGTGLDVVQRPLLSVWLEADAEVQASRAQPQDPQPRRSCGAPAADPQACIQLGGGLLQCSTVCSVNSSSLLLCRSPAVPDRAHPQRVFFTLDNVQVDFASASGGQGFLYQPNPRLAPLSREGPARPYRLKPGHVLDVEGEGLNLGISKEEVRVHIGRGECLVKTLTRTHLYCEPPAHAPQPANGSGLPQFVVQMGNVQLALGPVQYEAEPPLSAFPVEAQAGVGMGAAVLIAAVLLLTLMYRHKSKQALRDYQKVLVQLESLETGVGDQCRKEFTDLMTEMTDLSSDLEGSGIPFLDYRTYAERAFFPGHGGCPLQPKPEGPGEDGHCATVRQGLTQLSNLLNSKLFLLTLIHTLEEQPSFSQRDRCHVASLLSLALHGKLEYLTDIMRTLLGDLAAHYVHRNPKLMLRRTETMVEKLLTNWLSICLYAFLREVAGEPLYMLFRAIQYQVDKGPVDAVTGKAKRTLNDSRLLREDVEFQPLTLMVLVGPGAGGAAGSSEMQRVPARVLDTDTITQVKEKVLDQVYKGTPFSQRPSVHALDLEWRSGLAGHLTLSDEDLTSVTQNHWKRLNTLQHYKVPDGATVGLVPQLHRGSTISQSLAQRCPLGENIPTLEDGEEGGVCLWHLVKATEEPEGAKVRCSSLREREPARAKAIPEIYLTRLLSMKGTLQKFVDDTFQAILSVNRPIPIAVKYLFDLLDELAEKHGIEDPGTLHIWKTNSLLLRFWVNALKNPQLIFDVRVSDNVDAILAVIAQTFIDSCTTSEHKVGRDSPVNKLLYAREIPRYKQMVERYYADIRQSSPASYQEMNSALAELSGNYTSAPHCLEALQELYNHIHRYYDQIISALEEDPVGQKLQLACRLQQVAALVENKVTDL
HA-tagged plexin-B3 cytoplasmic domain (plexin-B3-cyto): residues 1277-1909 of Q9ULL4
UniProt P31946: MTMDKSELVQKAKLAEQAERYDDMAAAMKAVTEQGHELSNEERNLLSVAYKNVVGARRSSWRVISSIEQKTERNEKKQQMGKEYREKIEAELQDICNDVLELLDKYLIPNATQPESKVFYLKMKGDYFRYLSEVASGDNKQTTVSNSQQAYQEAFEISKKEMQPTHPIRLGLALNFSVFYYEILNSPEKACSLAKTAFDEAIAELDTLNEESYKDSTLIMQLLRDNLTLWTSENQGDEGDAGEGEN
UniProt P62834: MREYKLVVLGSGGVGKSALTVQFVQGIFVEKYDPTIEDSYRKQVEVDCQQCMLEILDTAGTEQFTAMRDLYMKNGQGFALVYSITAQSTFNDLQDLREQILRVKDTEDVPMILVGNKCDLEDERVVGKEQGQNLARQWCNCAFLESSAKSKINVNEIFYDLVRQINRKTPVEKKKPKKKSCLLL
UniProt P61224: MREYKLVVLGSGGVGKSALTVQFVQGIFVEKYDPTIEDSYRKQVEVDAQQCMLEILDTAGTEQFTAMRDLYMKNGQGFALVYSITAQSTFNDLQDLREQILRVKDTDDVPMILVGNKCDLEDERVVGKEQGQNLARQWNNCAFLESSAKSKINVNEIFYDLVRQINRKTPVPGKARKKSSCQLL

No constants are given. Whether binding was seen depends on the method and setting. In cells and extracts the contact can be indirect. Some binding calls cover weakened binding; strength is not graded here. Sequences can lack the tags named with a protein.

Assay [1] concerns the target T1, recombinant glutathione S-transferase (GST)-tagged Rnd3 (UniProt P61588).
T1 sequence: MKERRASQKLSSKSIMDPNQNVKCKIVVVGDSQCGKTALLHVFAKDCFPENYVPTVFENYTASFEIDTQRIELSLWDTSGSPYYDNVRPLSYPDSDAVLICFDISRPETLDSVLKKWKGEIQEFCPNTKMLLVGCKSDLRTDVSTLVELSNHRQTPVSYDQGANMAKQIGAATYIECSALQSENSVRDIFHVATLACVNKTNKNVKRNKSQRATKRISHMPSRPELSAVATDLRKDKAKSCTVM
Kind of assay: pull-down; GST or GST–Rnd3 on glutathione–Sepharose beads incubated 2 h at 4°C with lysates of transfected COS7 cells (1% Triton X-100, 20 mM Tris-HCl pH 8, 130 mM NaCl); immunoblotting; only the target purified.

The next assay has as its target T2, FLAG–Rnd3 (UniProt P61588).
T2 sequence: T1 sequence
As to the kind of experiment: co-IP; lysates of co-transfected COS7 cells (20 mM Tris-HCl pH 8, 130 mM NaCl, 1% Triton X-100); anti-FLAG or anti-HA antibody on agarose beads, 2 h at 4°C; immunoblotting. Background: Immunoblotting shows a protein as a band on a membrane.

In another assay the target is T3, FLAG–Rnd1 (UniProt Q92730).
T3 sequence: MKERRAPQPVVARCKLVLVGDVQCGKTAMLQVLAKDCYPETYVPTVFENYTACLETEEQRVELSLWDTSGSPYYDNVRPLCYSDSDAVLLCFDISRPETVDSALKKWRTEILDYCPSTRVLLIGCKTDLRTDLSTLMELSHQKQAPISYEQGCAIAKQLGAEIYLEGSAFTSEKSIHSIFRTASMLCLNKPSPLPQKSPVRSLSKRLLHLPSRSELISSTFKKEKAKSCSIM
The description is as above.

A further assay concerns the target T4, FLAG–Rnd2 (UniProt P52198).
T4 sequence: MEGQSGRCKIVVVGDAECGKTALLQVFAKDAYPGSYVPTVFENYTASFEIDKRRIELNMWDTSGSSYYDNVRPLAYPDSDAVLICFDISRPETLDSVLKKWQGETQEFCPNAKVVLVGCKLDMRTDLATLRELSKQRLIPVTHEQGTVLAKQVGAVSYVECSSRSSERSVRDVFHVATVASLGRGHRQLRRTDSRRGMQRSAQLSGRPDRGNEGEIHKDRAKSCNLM
The assay is described as above.

In assay [2] the target is full-length VSV-tagged plexin-B1 (UniProt O43157). As to the kind of experiment: co-IP; lysates of COS7 cells co-expressing plexin-B constructs and myc-R-Ras, GFP–Rap1A or HA–Rap1B; immunoprecipitated and western blotted with the indicated antibodies (not given).
Assay [3] addresses full-length VSV-tagged plexin-B3 (UniProt Q9ULL4). Described as above.
Assay [4] addresses HA-tagged plexin-B1 cytoplasmic domain (plexin-B1-cyto) (human) (UniProt O43157). As to the kind of experiment: co-IP; lysates of co-transfected COS7 cells (20 mM Tris-HCl pH 8, 130 mM NaCl, 1% Triton X-100); anti-FLAG or anti-HA antibody on agarose beads, 2 h at 4°C; immunoblotting.
Assay [5] concerns the target HA-tagged plexin-B3 cytoplasmic domain (plexin-B3-cyto) (human) (UniProt Q9ULL4). Described as above.

On to “full-length VSV-tagged plexin-B1 (from UniProt O43157 20-2135) (receptor)”, for which the binding entry in assay [1] is “binds weakly”; in the assay with FLAG–Rnd3, “binds weakly”; with FLAG–Rnd1, “binds weakly”; with FLAG–Rnd2, “binds”.

As for HA–14-3-3β (from UniProt P31946 1-246), the binding result with FLAG–Rnd3 is on record as “binds”.

As to GFP–Rap1A (from UniProt P62834 1-184), the binding entry in assay [2] and in assay [3] was “binds” each time.

As for “full-length VSV-tagged plexin-B3 (from UniProt Q9ULL4 45-1909) (receptor)”, the binding entry is given as “binds weakly” in assay [1], “binds weakly” in the assay with FLAG–Rnd3, “binds weakly” in the assay with FLAG–Rnd1 and “binds” with FLAG–Rnd2.

On to HA–Rap1B (from UniProt P61224 1-184), for which the binding entry in assay [2] and in assay [3] was “binds” each time.

B1: myc-R-Ras (protein, UniProt P10301 1-218)
chain: MSSGAASGTGRGRPRGGGPGPGDPPPSETHKLVVVGGGGVGKSALTIQFIQSYFVSDYDPTIEDSYTKICSVDGIPARLDILDTAGQEEFGAMREQYMRAGHGFLLVFAINDRQSFNEVGKLFTQILRVKDRDDFPVVLVGNKADLESQRQVPRSEASAFGASHHVAYFEASAKLRLNVDEAFEQLVRAVRKYQEQELPPSPPSAPRKKGGGCPCVLL
On to B1, for which the binding entry in assay [2] and in assay [3] was “binds” in each case.

B2: FLAG–Rnd1 (protein, UniProt Q92730 1-232)
chain: T3 sequence
Take B2: the binding result in assay [4] and in assay [5] was “binds weakly” throughout.

B3: FLAG–Rnd3 (protein, UniProt P61588 1-244)
chain: T1 sequence
On to B3, for which the binding entry in assay [4] and in assay [5] was “binds weakly” throughout.

B4: FLAG–Rnd2 (protein, UniProt P52198 1-227)
chain: T4 sequence
With B4, the binding entry in assay [4] and in assay [5] was “binds” in each case.
